Data as given in PubChem BioAssay AID1259254 (NCATS, 2017).
The whole screen tested about 59,000 reagents; shown is a random part of them. Of all reagents, about 1,550 (2.6%) were called active. 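G2 share is only a proxy for re-replication; each gene was hit by three separate siRNAs, and active genes were retested.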 Reagents against one gene are numbered here. Further read-outs or replicates are left out here. No sequences are given here. The record does not give: the amount of reagent.

Purpose: 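Finding genes that stop cells copying their DNA twice in one cycle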 (primary screen)
System: human HCT116 colorectal cancer cells
Knock-down reagent: single siRNA against human genes
Duration: 3 days
Detection: 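Nuclei stained with Hoechst and imaged; cell-cycle phase assigned by DNA content; G2 share scaled per plate, non-targeting siRNA 0%, GMNN siRNA 100%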
Direction: G2 robust z-score and G2 cells, % of GMNN control: higher = more G2 cells, more excess DNA replication
Rule for the call: 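Active siRNAs have a G2 robust z of 5 or more median absolute deviations over the median, which in these data means about 38% or higher of GMNN control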

ACYP1 #1 — G2 robust z-score = 1; G2 cells, % of GMNN control = 10; Call = inactive
ACYP1 #2 — G2 robust z-score = -0.461; G2 cells, % of GMNN control = -0.275; Call = inactive
ACYP1 #3 — G2 robust z-score = 3.73; G2 cells, % of GMNN control = 29.2; Call = inactive
LARP1BP1 #1 — G2 robust z-score = -0.0057; G2 cells, % of GMNN control = 2.93; Call = inactive
LARP1BP1 #2 — G2 robust z-score = -0.239; G2 cells, % of GMNN control = 1.28; Call = inactive
LARP1BP1 #3 — G2 robust z-score = -0.966; G2 cells, % of GMNN control = -3.83; Call = inactive
PFKL #1 — G2 robust z-score = 0.428; G2 cells, % of GMNN control = 5.98; Call = inactive
PFKL #2 — G2 robust z-score = -0.022; G2 cells, % of GMNN control = 2.81; Call = inactive
PFKL #3 — G2 robust z-score = -1.2; G2 cells, % of GMNN control = -5.48; Call = inactive
NCEH1 #1 — G2 robust z-score = 0.608; G2 cells, % of GMNN control = 7.25; Call = inactive
NCEH1 #2 — G2 robust z-score = 0.1; G2 cells, % of GMNN control = 3.67; Call = inactive
NCEH1 #3 — G2 robust z-score = -0.0432; G2 cells, % of GMNN control = 2.66; Call = inactive

5 consecutive records from above, for reference:
PFKL #2 — G2 robust z-score = -0.022; G2 cells, % of GMNN control = 2.81; Call = inactive
PFKL #3 — G2 robust z-score = -1.2; G2 cells, % of GMNN control = -5.48; Call = inactive
NCEH1 #1 — G2 robust z-score = 0.608; G2 cells, % of GMNN control = 7.25; Call = inactive
NCEH1 #2 — G2 robust z-score = 0.1; G2 cells, % of GMNN control = 3.67; Call = inactive
NCEH1 #3 — G2 robust z-score = -0.0432; G2 cells, % of GMNN control = 2.66; Call = inactive

Next results follow.
OTULINL #1 — G2 robust z-score = 0.849; G2 cells, % of GMNN control = 8.94; Call = inactive
OTULINL #2 — G2 robust z-score = -0.569; G2 cells, % of GMNN control = -1.03; Call = inactive
OTULINL #3 — G2 robust z-score = -0.988; G2 cells, % of GMNN control = -3.98; Call = inactive
LOC284009 #1 — G2 robust z-score = 0.442; G2 cells, % of GMNN control = 6.07; Call = inactive
LOC284009 #2 — G2 robust z-score = -0.332; G2 cells, % of GMNN control = 0.634; Call = inactive
LOC284009 #3 — G2 robust z-score = 0.217; G2 cells, % of GMNN control = 4.49; Call = inactive
C2orf15 #1 — G2 robust z-score = -0.255; G2 cells, % of GMNN control = 1.17; Call = inactive
C2orf15 #2 — G2 robust z-score = -0.907; G2 cells, % of GMNN control = -3.41; Call = inactive
C2orf15 #3 — G2 robust z-score = -0.776; G2 cells, % of GMNN control = -2.49; Call = inactive
ARSA #1 — G2 robust z-score = -0.699; G2 cells, % of GMNN control = -1.95; Call = inactive
ARSA #2 — G2 robust z-score = 3.8; G2 cells, % of GMNN control = 29.7; Call = inactive
ARSA #3 — G2 robust z-score = 1.46; G2 cells, % of GMNN control = 13.2; Call = inactive
RPL18AP16 #1 — G2 robust z-score = 2.02; G2 cells, % of GMNN control = 17.2; Call = inactive
RPL18AP16 #2 — G2 robust z-score = 3.13; G2 cells, % of GMNN control = 25; Call = inactive
RPL18AP16 #3 — G2 robust z-score = 8.55; G2 cells, % of GMNN control = 63.1; Call = active
DPPA5 #1 — G2 robust z-score = 0.0893; G2 cells, % of GMNN control = 3.6; Call = inactive
DPPA5 #2 — G2 robust z-score = -0.33; G2 cells, % of GMNN control = 0.642; Call = inactive
DPPA5 #3 — G2 robust z-score = -0.778; G2 cells, % of GMNN control = -2.51; Call = inactive
